This is an account of results in article PMC8777168 (2022).

No constants are given. Whether binding was seen depends on the method and setting. In cells and extracts the contact can be indirect. A result given as binding can be weak or reduced; the word gives no strength.

The assay has as its target T1, MIF in 293T cells (UniProt P14174).
T1 sequence: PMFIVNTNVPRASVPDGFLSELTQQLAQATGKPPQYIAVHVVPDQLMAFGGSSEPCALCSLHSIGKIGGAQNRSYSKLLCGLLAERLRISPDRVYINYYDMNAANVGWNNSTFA
The experiment in a line: co-IP; 293T cells transfected for 24 h with STUB1 truncation or mutation plasmids, lysed, coimmunoprecipitation and western blotting. A general note: A western blot detects proteins with antibodies after separation by electrophoresis.

As for “N-terminus of STUB1 (domain or fragment)”, the binding entry was “binds”.
